Laboratory results as given in publication PMC2928751.
No constants are given. Whether binding was seen depends on the method and setting. In cells and extracts the contact can be indirect. Some binding calls cover weakened binding; strength is not graded here.

The chains behind the UniProt entries cited, without tags or fusion partners. Where a name states a change or a piece, a line headed by the entry shows the natural chain unless it says otherwise. A line that says so, or that is headed by a name, gives the form on record, which may keep a tag or linker.
GST-JNK3 (P53779, form named): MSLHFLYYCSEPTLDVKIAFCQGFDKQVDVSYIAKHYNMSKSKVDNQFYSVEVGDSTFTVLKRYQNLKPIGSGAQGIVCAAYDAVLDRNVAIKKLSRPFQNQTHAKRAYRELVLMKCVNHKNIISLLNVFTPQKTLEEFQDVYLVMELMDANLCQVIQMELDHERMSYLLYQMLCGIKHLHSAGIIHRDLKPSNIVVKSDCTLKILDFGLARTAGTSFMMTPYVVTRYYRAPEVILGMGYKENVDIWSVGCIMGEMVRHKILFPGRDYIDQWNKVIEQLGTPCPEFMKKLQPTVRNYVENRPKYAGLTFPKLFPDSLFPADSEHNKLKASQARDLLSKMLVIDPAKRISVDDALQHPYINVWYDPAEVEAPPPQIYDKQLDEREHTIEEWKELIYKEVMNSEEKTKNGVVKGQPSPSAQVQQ
GST-JNK1 (P45983, form named): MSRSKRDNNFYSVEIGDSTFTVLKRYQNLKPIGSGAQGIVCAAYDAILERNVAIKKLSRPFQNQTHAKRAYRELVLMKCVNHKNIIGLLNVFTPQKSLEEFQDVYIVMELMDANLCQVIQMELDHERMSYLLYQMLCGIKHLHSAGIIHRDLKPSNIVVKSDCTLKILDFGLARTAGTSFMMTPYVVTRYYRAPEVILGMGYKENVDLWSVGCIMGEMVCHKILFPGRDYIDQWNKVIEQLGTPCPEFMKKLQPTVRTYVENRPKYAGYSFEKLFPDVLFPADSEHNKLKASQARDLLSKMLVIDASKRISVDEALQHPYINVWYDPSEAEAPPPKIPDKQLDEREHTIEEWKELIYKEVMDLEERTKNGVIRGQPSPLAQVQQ

Assays:
Experiment in all cases: pull-down; GST fusion protein (or GST alone) bound to glutathione-Sepharose beads; ~1 pmol 35S-labelled in vitro translated partner, partially purified by ammonium sulfate precipitation; binding buffer 20 mM Tris-HCl pH 7.5, 125 mM KOAc, 0.5 mM EDTA, 1 mM DTT, 0.1% Tween20, 12.5% glycerol; 30°C 15 min, then 30 min at room temperature; only the target purified
GST-JNK2 (human) = GST-JNK2 (human) (UniProt P45984)
GST-JNK3 (human) = GST-JNK3 (human) (UniProt P53779)
GST-JNK1 (human) = GST-JNK1 (human) (UniProt P45983)

Measured: binding

B1: Gli1(68-232), wild type (domain or fragment, UniProt P08151 68-232)
chain: FSSPRSAVKLTKKRALSISPLSDASLDLQTVIRTSPSSLVAFINSRCTSPGGSYGHLSIGTMSPSLGFPAQMNHQKGPSPSFGVQPCGPHDSARGGMIPHPQSRGPFPTCQLKSELDMLVGKCREEPLEGDMSSPNSTGIQDPLLGMLDGREDLEREEKREPESV
modifications: [35S]-methionine labelled
binds: all assays above
